The inconclusive results got no clear call from the source; some entries with a clear call stand among them for comparison. Potencies of inconclusive entries are doubtful fits and often do not repeat. Active and inactive are the calls of the source. The call rests on the fitted dose curve; in most records, active means well fitted cell-killing curve with a large enough effect; inconclusive means small, poorly fitted or top-dose-only effect, or effect the other way; inactive means no such curve, though single readings can be large or run the other way.
Experiments:
[1] = Quantitative High-Throughput drug screen in 47 multiple myeloma cell lines against the NCATS MIPE library collection: JJN3_DSMZ cell viability assay (AID 1918966; further: nearly all actives have a fitted effect of over 50% in size); settings: JJN3 myeloma cells viability, CellTiter-Glo ATP, 48 h; series mostly up to 45.8 µM
How it was run: (§1)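 Myeloma cell lines, 500 cells per well, exposed to MIPE 4.0 library compounds for 48 h at 37C, 5% CO2. Viability from ATP by CellTiter-Glo luminescence; normalised to DMSO (100%) and media-only (0%) wells.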

[2] = Quantitative High-Throughput drug screen in 47 multiple myeloma cell lines against the NCATS MIPE library collection: KMS20_JCRB cell viability assay (AID 1918973); settings: CellTiter-Glo ATP, 48 h; viability (% of DMSO): at 45.8 µM (top of the series); further: nearly all actives have a fitted effect of over 45% in size
How it was run: as §1

[3] = Quantitative High-Throughput drug screen in 47 multiple myeloma cell lines against the NCATS MIPE library collection: KMS21BM_JCRB cell viability assay (AID 1918974); settings: ATP luminescence, 48 h; viability: at 45.8 µM (top of the series) unless noted
How it was run: as §1

[4] = Quantitative High-Throughput drug screen in 47 multiple myeloma cell lines against the NCATS MIPE library collection: KMS26_JCRB cell viability assay (AID 1918975); settings: KMS26 myeloma cells viability, CellTiter-Glo ATP, 48 h; viability (% of DMSO): at 45.8 µM (top of the series); further: nearly all actives have a fitted effect of over 45% in size
How it was run: (§2)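 Myeloma cells (500 per well) were exposed to MIPE 4.0 compounds by pin transfer and incubated 48 hours at 37C, 5% CO2. Viability was read as ATP by CellTiter-Glo luminescence, normalised to DMSO (100%) and media-only (0%) wells.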

[5] = Quantitative High-Throughput drug screen in 47 multiple myeloma cell lines against the NCATS MIPE library collection: MMM1_PLB cell viability assay (AID 1918976); settings: MMM1 myeloma cells viability, CellTiter-Glo, 48 h; series mostly up to 45.8 µM; further: nearly all actives have a fitted effect of over 35% in size
How it was run: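 ATP-based CellTiter-Glo luminescence after 48 h drug exposure (37 °C, 5% CO2) of 500 myeloma cells per well. DMSO-only wells set 100% viability, media-only wells 0%; MIPE 4.0 library added by pin tool.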

[6] = Quantitative High-Throughput drug screen in 47 multiple myeloma cell lines against the NCATS MIPE library collection: KMS12PE_JCRB cell viability assay (AID 1918972); settings: KMS12PE myeloma viability, CellTiter-Glo ATP, 48 h; viability: at 45.8 µM (top of the series); further: nearly all actives have a fitted effect of over 30% in size
How it was run: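 CellTiter-Glo ATP luminescence gave viability after 48 h compound treatment at 37C of 500 multiple myeloma cells per well. Normalisation used DMSO-only wells as 100% and media-only wells as 0% viability; primary qHTS of approved and investigational drugs.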

[7] = Quantitative High-Throughput drug screen in 47 multiple myeloma cell lines against the NCATS MIPE library collection: KMS12BM_JCRB cell viability assay (AID 1918971); settings: KMS12BM myeloma viability, CellTiter-Glo ATP, 48 h; series mostly up to 45.8 µM; further: nearly all actives have a fitted effect of over 35% in size
How it was run: as §2

[8] = Quantitative High-Throughput drug screen in 47 multiple myeloma cell lines against the NCATS MIPE library collection: H1112_PLB cell viability assay (AID 1918967; further: nearly all actives have a fitted effect of over 30% in size); settings: H1112 myeloma cells viability, ATP luminescence, 48 h; viability: at 45.8 µM (top of the series)
How it was run: as §1

[9] = Quantitative High-Throughput drug screen in 47 multiple myeloma cell lines against the NCATS MIPE library collection: Karpas25_ECACC cell viability assay (AID 1918968; further: nearly all actives have a fitted effect of over 35% in size); settings: Karpas25 myeloma viability, CellTiter-Glo ATP, 48 h; viability (% of control): at 45.8 µM (top of the series)
How it was run: as §1

[10] = Quantitative High-Throughput drug screen in 47 multiple myeloma cell lines against the NCATS MIPE library collection: KMS27_JCRB cell viability assay (AID 1918970); settings: KMS27 myeloma cells, CellTiter-Glo ATP viability, 48 h; viability (% of DMSO): at 45.8 µM (top of the series) unless noted; further: nearly all actives have a fitted effect of over 30% in size
How it was run: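 Luminescent ATP read-out (CellTiter-Glo, 5 min at room temperature) after 48 h compound exposure of 500 KMS27_JCRB cells per well; DMSO wells define full viability and media-only wells zero.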
Potency means the concentration at half of the fitted maximal effect.

In the case of `O=C(O)CCNc1cc(N2CCc3ccccc3CC2)nc(-c2ccccn2)n1`, the Potency [1] is reported as inconclusive: 8.33 µM [cytotoxic, full curve, poor fit], the Potency [2] is reported as inconclusive: 0.469 µM [cytotoxic, full curve, poor fit] and the Potency [3] is reported as inconclusive: 9.35 µM [rising, full curve, poor fit]. The Potency [4] was “inactive” and the Potency [5] was inconclusive: 1.32 µM [cytotoxic, partial curve, poor fit].

With `N#Cc1c(O)c2c(-c3ccc(-c4ccccc4O)cc3)csc2[nH]c1=O` the Potency [1] was inconclusive: 23.5 µM [cytotoxic, partial curve, poor fit], the Potency [6] was “inactive” and the Potency [2] was inconclusive: 2.64 µM [cytotoxic, partial curve, poor fit]. The Potency [3] was inconclusive: 8.33 µM [rising, full curve], the Potency [4] was “inactive” and the Potency [5] was inconclusive: 4.18 µM [cytotoxic, full curve, poor fit].

With `Cc1nc(NC(=O)N2CCC[C@@H]2C(N)=O)sc1-c1csc(C(C)(C)C)n1` the Potency [1] was active: 6.62 µM, the Potency [7] was inconclusive: 26.4 µM [cytotoxic, partial curve, poor fit] and the Potency [3] was active: 1.05 µM. The Potency [4] was active: 1.18 µM.

With `CC(C)C[C@H](NC(=O)[C@@H](O)[C@H](N)Cc1ccccc1)C(=O)O` the Potency [1] was inconclusive: 29.6 µM [cytotoxic, single point], the Potency [6] was “inactive” and the Potency [3] was inconclusive: 11.8 µM [rising, full curve].

In the case of `O=C(Nc1ccc(Oc2ccnc3[nH]ccc23)c(F)c1)c1cccn(-c2ccc(F)cc2)c1=O`, the Potency [8] is reported as inconclusive: 37.2 µM [cytotoxic, single point], the Potency [9] is reported as inconclusive: 33.2 µM [cytotoxic, single point] and the Potency [10] is reported as inconclusive: 0.0026 µM [cytotoxic, full curve, poor fit]. The Potency [7] was inconclusive: 33.2 µM [cytotoxic, single point], the Potency [4] was inconclusive: 20.9 µM [cytotoxic, partial curve, poor fit] and the Potency [5] was inconclusive: 0.0209 µM [rising, full curve, poor fit].

In the case of `CS(=O)(=O)c1ccc(C(=O)Nc2ccc(Cl)c(-c3ccccn3)c2)c(Cl)c1`, the Potency [8] is reported as inconclusive: 18.7 µM [cytotoxic, partial curve, poor fit], the Potency [10] is reported as inconclusive: 0.0013 µM [cytotoxic, full curve, poor fit] and the Potency [7] is reported as inconclusive: 0.0296 µM [rising, full curve, poor fit]. For the same molecule, the Potency [6] was inconclusive: 26.4 µM [cytotoxic, partial curve, poor fit], the Potency [2] was inconclusive: 0.0023 µM [cytotoxic, full curve, poor fit] and the Potency [4] was “inactive”. For the same molecule, the Potency [5] was inconclusive: 0.0066 µM [rising, full curve, poor fit].

With `NNCCc1ccccc1` the Potency [1] was active: 18.7 µM, the Potency [3] was active: 13.2 µM and the Potency [4] was inconclusive: 9.35 µM [cytotoxic, partial curve, poor fit]. For the same molecule, the Potency [5] was active: 5.9 µM.

With `Cc1nc2cnc3ccc(C#Cc4cccnc4)cc3c2n1-c1ccc(C(C)(C)C#N)cc1` the Potency [8] was active: 0.166 µM, the Potency [10] was inconclusive: 0.0015 µM [rising, full curve, poor fit] and the Potency [7] was inconclusive: 5.26 µM [cytotoxic, partial curve, poor fit]. For the same molecule, the Potency [6] was inconclusive: 0.001 µM, the Potency [3] was inconclusive: 0.0053 µM [rising, full curve, poor fit] and the Potency [5] was active: 0.148 µM.

For `O=C(c1ccc(OCCN2CCCCC2)cc1)c1c(-c2ccc(O)cc2)sc2cc(O)ccc12`, the Potency [8] was inconclusive: 23.5 µM [cytotoxic, single point], the Potency [9] was inconclusive: 37.2 µM [cytotoxic, single point] and the Potency [7] was inconclusive: 33.2 µM [cytotoxic, partial curve, poor fit]. For the same molecule, the Potency [6] was active: 23.5 µM, the Potency [3] was active: 13.2 µM and the Potency [5] was inconclusive: 33.2 µM [cytotoxic, single point].

With `Cc1cc2c(C(C)C)c(O)c(O)c(C=O)c2c(O)c1-c1c(C)cc2c(C(C)C)c(O)c(O)c(C=O)c2c1O` the Potency [1] was active: 18.7 µM and the Potency [3] was inconclusive: 37.2 µM [rising, partial curve].

In the case of `Oc1cccc(-c2nc(N3CCOCC3)c3oc4ncccc4c3n2)c1`, the Potency [8] is reported as active: 9.59 µM, the viability (% of DMSO) [10] is reported as inconclusive: 26% [cytotoxic] [at 92.2 µM] and the Potency [7] is reported as inconclusive: 0.0429 µM [cytotoxic, full curve, poor fit]. For the same molecule, the Potency [2] was active: 0.152 µM, the viability [3] was active: 37.2% [at 92.2 µM] and the Potency [5] was active: 0.0679 µM.

For `NC1=N[C@H]2[C@H](CS[C@H]2CCCCC(=O)O)N1`, the Potency [1] was inconclusive: 0.0057 µM [rising, full curve, poor fit], the Potency [7] was “inactive” and the Potency [2] was inconclusive: 0.001 µM [rising, full curve, poor fit]. For the same molecule, the Potency [5] was inconclusive: 0.0323 µM [rising, full curve, poor fit].

In the case of `Cc1ccc(NC(=O)c2cccc(N(C)C)c2)cc1NC(=O)c1ccc(O)cc1`, the Potency [1] is reported as active: 23.5 µM, the Potency [6] is reported as inconclusive: 13.2 µM [cytotoxic, partial curve] and the Potency [3] is reported as inconclusive: 0.935 µM [cytotoxic, full curve, poor fit]. For the same molecule, the Potency [4] was inconclusive: 3.72 µM [cytotoxic, full curve, poor fit] and the Potency [5] was inconclusive: 0.662 µM [cytotoxic, partial curve, poor fit].

With `Clc1ccc2c(c1)C(N1CCNCC1)=Nc1ccccc1O2` the Potency [8] was inconclusive: 29.6 µM [cytotoxic, single point], the Potency [10] was inconclusive: 0.264 µM [rising, full curve, poor fit] and the Potency [7] was inconclusive: 14.8 µM [cytotoxic, partial curve, poor fit]. The Potency [6] was “inactive”, the Potency [3] was inconclusive: 26.4 µM [rising, partial curve] and the Potency [4] was inconclusive: 20.9 µM [cytotoxic, partial curve, poor fit].

With `CC(C)c1cnn2c(NCc3ccccc3)cc(NCCCCCCN)nc12` the Potency [8] was inconclusive: 10.5 µM [cytotoxic, partial curve, poor fit], the Potency [9] was inconclusive: 3.32 µM [cytotoxic, full curve, poor fit] and the Potency [2] was inconclusive: 37.2 µM [cytotoxic, partial curve, poor fit]. The Potency [3] was active: 23.5 µM.

For `CC[C@@]1(O)C(=O)OCc2c1cc1n(c2=O)Cc2cc3c(CN(C)C)c(O)ccc3nc2-1`, the Potency [8] was active: 0.418 µM, the Potency [9] was active: 0.662 µM and the Potency [10] was active: 0.0833 µM. The Potency [6] was active: 2.64 µM, the Potency [2] was active: 0.235 µM and the Potency [3] was inconclusive: 37.2 µM [rising, partial curve, poor fit]. The Potency [4] was active: 20.9 µM.

For `O=S(=O)(O)c1ccc2cc(N=Nc3cc(S(=O)(=O)O)c4cccnc4c3O)ccc2c1`, the Potency [8] was inconclusive: 6.62 µM [cytotoxic, partial curve, poor fit], the Potency [9] was “inactive” and the Potency [6] was “inactive”. For the same molecule, the Potency [2] was inconclusive: 0.418 µM [cytotoxic, full curve, poor fit], the Potency [3] was inconclusive: 33.2 µM [rising, partial curve, poor fit] and the Potency [5] was active: 3.72 µM.

With `COc1cccc(OC)c1-c1cc(C(=O)NC2(C(=O)O)C3CC4CC(C3)CC2C4)nn1-c1ccnc2cc(Cl)ccc12` (configuration not stated) the Potency [1] was inconclusive: 18.7 µM [cytotoxic, partial curve, poor fit], the Potency [7] was inconclusive: 11.8 µM [cytotoxic, partial curve, poor fit] and the Potency [3] was inconclusive: 29.6 µM [rising, partial curve, poor fit]. The Potency [5] was active: 14.8 µM.

With `Oc1cc(-c2nc(-c3ccccc3)[nH]c2-c2ccncc2)ccc1Cl` the Potency [8] was inconclusive: 3.32 µM [cytotoxic, full curve, poor fit], the Potency [10] was active: 2.64 µM and the Potency [7] was active: 20.9 µM. For the same molecule, the Potency [2] was active: 8.33 µM, the Potency [3] was active: 3.32 µM and the Potency [5] was active: 18.7 µM.

For `C=C1[C@H](n2cnc3c(=O)[nH]c(N)nc32)C[C@H](O)[C@H]1CO`, the Potency [1] was “inactive”, the Potency [3] was active: 1.32 µM and the Potency [4] was “inactive”. For the same molecule, the Potency [5] was active: 3.72 µM.

With `CC(C)c1cnn2c(NCc3ccccc3)cc(N[C@@H](CO)[C@H](O)CO)nc12` the Potency [1] was active: 0.132 µM, the Potency [3] was inconclusive: 33.2 µM [rising, partial curve, poor fit] and the Potency [4] was active: 0.296 µM.

In the case of `Cc1ccc(S(=O)(=O)Nc2nc3ccccc3nc2Nc2ccc3nsnc3c2)cc1`, the Potency [8] is reported as inconclusive: 0.512 µM [cytotoxic, full curve], the Potency [2] is reported as inconclusive: 1.82 µM [cytotoxic, full curve] and the Potency [4] is reported as inconclusive: 1.62 µM [cytotoxic, full curve, poor fit].

Source: PubChem BioAssay (NCATS)
